Results reported in US7214672B2, “Preventives/remedies for inflammatory airway diseases” (Nippon Shinyaku Co., Ltd., priority 2000, dated 2007).
Some results were stated once for a whole list of compounds, not compound by compound. At least one compound was matched to its structure with a doubt left.

Test system: Rat (male, female)
Experiment: Single dose toxicity study
Assay type: in vivo
Details: single administration
Description: Compound 1 or 2 of the present invention was administered to rats only once, and the lethal dose thereof was determined.

Row | SMILES | Lethal dose (In general) (Oral) | Lethal dose (In general) (Subcutaneous)
1 | C[C@@H]1C[C@H]2[C@@H]3CCC4=CC(=O)C=C[C@]4(C)[C@@]3(F)[C@@H](O)C[C@]2(C)[C@@]1(OC(=O)C1CC1)C(=O)CO [Compound 1, 9-fluoro-11β,17,21-trihydroxy-16α-methyl-1,4-pregnadiene-3,20-dione 17-cyclopropanecarboxylate] | 2,000 mg/kg or more | 2,000 mg/kg or more
2 | C[C@@H]1C[C@H]2[C@@H]3CCC4=CC(=O)C=C[C@]4(C)[C@@]3(F)[C@@H](O)C[C@]2(C)[C@@]1(OC(=O)C1CC1)C(=O)COC(=O)C1CCCCC1 [Compound 2, 9-fluoro-11β,17,21-trihydroxy-16α-methyl-1,4-pregnadiene-3,20-dione 21-cyclohexanecarboxylate 17-cyclopropanecarboxylate] | 2,000 mg/kg or more | 2,000 mg/kg or more
